Laboratory results published in patent US20260265538A1, “Aqueous Industrial Product Stabilized Against Microbial Contamination” (Thor GmbH, priority 2023, published 2026).
Where a name gives a salt, the structure may show the parent alone. The source gives many values for each of these; only a part stands here.

System: Bacteria mixture 1 (Pseudomonas genus)
Assay: Repetitive stress test of paints with bacteria mixture 1, semiquantitative evaluation (examples 2 and 3)
Assay type: cell-based
Set-up: key: 0: No growth; Minimal growth, 1 to 10 colonies visible over the entire streak; 2: Light growth, maximum 100 colonies; Moderate growth, maximum 300 to 400 colonies; Uniform growth, >400 colonies, single colonies still clearly recognizable; 5: Heavy growth, too many colonies to count, but no growth over the entire streak; 6: Full growth, barely any single colonies still apparent, growth over the entire streak
Details: 6 d
From the text: Paints 1 to 3 were mixed and homogenized with various concentrations of the guanidinium salts to be tested.
The batches obtained of the paint thus prepared were inoculated repeatedly with a mixture of different wild-type bacterial strains that are of practical relevance with regard to contamination. These bacteria had previously been isolated from commercial emulsion paints containing conventional preservatives (bacteria mixture 1, Pseudomonas genus), which are microbially contaminated in practice, and commercial so-called preservative-free alkaline emulsion paints (bacteria mixture 2, alkaliphilic bacteria of the Nesterenkonia & Alkalibacterium genus), which are microbially contaminated in practice.
• Pseudomonas spp. (Pseudomonas oleovorans group) DSM 33933 • Pseudomonas aeruginosa DSM 33935 • Pseudomonas oleovorans DSM 33936 • Pseudomonas putida DSM 33937 • Pseudomonas aeruginosa DSM 33938
The inoculum was added to the respective sample in each inoculation at 2% (v/w) as a fresh cell suspension in a physiological saline solution (0.9% NaCl). The cell count of the added inoculum in example 1 was 10^5/ml, in examples 2 to 5 10^9/ml, and in example 6 10^6/ml, each in equal portions consisting of the individual bacterial strains. The cell suspension was produced by growing the individual bacteria at 30° C. for 24 h in liquid culture on a shaker. The medium used to grow the bacteria from bacteria mixture 1 was Müller-Hinton liquid medium. Bacteria from bacteria mixture 2 were grown in Müller-Hinton liquid medium that had been adjusted to pH 9.5-9.7 with an alkaline buffer solution beforehand. After growing, the individual liquid cultures were centrifuged, and the cells were resuspended in physiological saline solution. In order to adjust the mixture to the desired cell count, the individual bacteria suspensions, if necessary, were diluted accordingly before being combined with saline solution. The cell count of the inoculum was determined in each case by chamber counting.
In examples 2 to 6, what is called a repetitive stress test with bacteria was conducted by inoculating the samples at particular time intervals repeatedly with a bacteria suspension having a cell count of 10^9/ml (2% v/w) and monitoring the evolution of the bacteria by a semiquantitative evaluation method. After each inoculation, the samples were incubated at 30° C. for 6 days (bacteria mixture 1 and 3) or 7 and 14 days (bacteria mixture 2), and after these periods bacterial infestation was evaluated semiquantitatively in each case. For this purpose, an aliquot was taken from each sample after homogenization using a sterile plastic inoculation loop (10 μl) and streaked evenly on agar plates (bacteria mixture 1 and 3 on tryptic soy agar, bacteria mixture 2 on DSMZ 31 alkaline nutrient agar). The streaked agar plates were then incubated at 30° C. for 48 h (bacteria mixture 1 and 3) or 5 to 7 days (bacteria mixture 2). After incubation, the bacterial colonies grown on the agar plates were visually evaluated and quantified according to the following scheme:
A total of 3 inoculation cycles was performed in each repetitive stress test.
Inoculation 2% (w/v) with Bacteria Mixture 1, 10^9 CFU/ml
2% (w/v) Inoculation with Bacteria Mixture 1, […]

N=C(N)N [guanidine hydrochloride]
Bacterial growth after inoculation (Table 2, Paint 1, +0.25% guanidine hydrochloride (1545 ppm guanidine), pH 7.7, 1. inoculation): 6
Bacterial growth after inoculation (Table 2, Paint 1, +0.25% guanidine hydrochloride (1545 ppm guanidine), pH 7.7, 2. inoculation): 6
Bacterial growth after inoculation (Table 2, Paint 1, +0.25% guanidine hydrochloride (1545 ppm guanidine), pH 7.7, 3. inoculation): 6
Bacterial growth after inoculation (Table 2, Paint 1, +0.25% guanidine hydrochloride (1545 ppm guanidine), pH 8.5 adjusted with NaOH, 1. inoculation): 3 (Moderate growth, maximum 300 to 400 colonies)
Bacterial growth after inoculation (Table 2, Paint 1, +0.25% guanidine hydrochloride (1545 ppm guanidine), pH 8.5 adjusted with NaOH, 2. inoculation): 6
Bacterial growth after inoculation (Table 2, Paint 1, +0.25% guanidine hydrochloride (1545 ppm guanidine), pH 8.5 adjusted with NaOH, 3. inoculation): 6
Bacterial growth after inoculation (Table 2, Paint 1, +0.25% guanidine hydrochloride (1545 ppm guanidine), pH 9.0 adjusted with NaOH, 1. inoculation): 0
Bacterial growth after inoculation (Table 2, Paint 1, +0.25% guanidine hydrochloride (1545 ppm guanidine), pH 9.0 adjusted with NaOH, 2. inoculation): 4 (Uniform growth, >400 colonies, single colonies still clearly recognizable)
Bacterial growth after inoculation (Table 2, Paint 1, +0.25% guanidine hydrochloride (1545 ppm guanidine), pH 9.0 adjusted with NaOH, 3. inoculation): 6
Bacterial growth after inoculation (Table 2, Paint 1, +0.5% guanidine hydrochloride (3090 ppm guanidine), pH 7.6, 1. inoculation): 6
Bacterial growth after inoculation (Table 2, Paint 1, +0.5% guanidine hydrochloride (3090 ppm guanidine), pH 7.6, 2. inoculation): 6
Bacterial growth after inoculation (Table 2, Paint 1, +0.5% guanidine hydrochloride (3090 ppm guanidine), pH 7.6, 3. inoculation): 6
Bacterial growth after inoculation (Table 2, Paint 1, +0.5% guanidine hydrochloride (3090 ppm guanidine), pH 8.5 adjusted with NaOH, 1. inoculation): 0
Bacterial growth after inoculation (Table 2, Paint 1, +0.5% guanidine hydrochloride (3090 ppm guanidine), pH 8.5 adjusted with NaOH, 2. inoculation): 0
Bacterial growth after inoculation (Table 2, Paint 1, +0.5% guanidine hydrochloride (3090 ppm guanidine), pH 8.5 adjusted with NaOH, 3. inoculation): 6
Bacterial growth after inoculation (Table 2, Paint 1, +0.5% guanidine hydrochloride (3090 ppm guanidine), pH 9.0 adjusted with NaOH, 1. inoculation): 0
Bacterial growth after inoculation (Table 2, Paint 1, +0.5% guanidine hydrochloride (3090 ppm guanidine), pH 9.0 adjusted with NaOH, 2. inoculation): 0
Bacterial growth after inoculation (Table 2, Paint 1, +0.5% guanidine hydrochloride (3090 ppm guanidine), pH 9.0 adjusted with NaOH, 3. inoculation): 0
Bacterial growth after inoculation (Table 2, Paint 2, +0.25% guanidine hydrochloride (1545 ppm guanidine), pH 7.8, 1. inoculation): 6
Bacterial growth after inoculation (Table 2, Paint 2, +0.25% guanidine hydrochloride (1545 ppm guanidine), pH 7.8, 2. inoculation): 6
Bacterial growth after inoculation (Table 2, Paint 2, +0.25% guanidine hydrochloride (1545 ppm guanidine), pH 7.8, 3. inoculation): 6
Bacterial growth after inoculation (Table 2, Paint 2, +0.25% guanidine hydrochloride (1545 ppm guanidine), pH 8.4 adjusted with NaOH, 1. inoculation): 6
Bacterial growth after inoculation (Table 2, Paint 2, +0.25% guanidine hydrochloride (1545 ppm guanidine), pH 8.4 adjusted with NaOH, 2. inoculation): 6
Bacterial growth after inoculation (Table 2, Paint 2, +0.25% guanidine hydrochloride (1545 ppm guanidine), pH 8.4 adjusted with NaOH, 3. inoculation): 6
Bacterial growth after inoculation (Table 2, Paint 2, +0.25% guanidine hydrochloride (1545 ppm guanidine), pH 9.0 adjusted with NaOH, 1. inoculation): 0
Bacterial growth after inoculation (Table 2, Paint 2, +0.25% guanidine hydrochloride (1545 ppm guanidine), pH 9.0 adjusted with NaOH, 2. inoculation): 0
Bacterial growth after inoculation (Table 2, Paint 2, +0.25% guanidine hydrochloride (1545 ppm guanidine), pH 9.0 adjusted with NaOH, 3. inoculation): 6
Bacterial growth after inoculation (Table 2, Paint 2, +0.5% guanidine hydrochloride (3090 ppm guanidine), pH 7.7, 1. inoculation): 6
Bacterial growth after inoculation (Table 2, Paint 2, +0.5% guanidine hydrochloride (3090 ppm guanidine), pH 7.7, 2. inoculation): 6
Bacterial growth after inoculation (Table 2, Paint 2, +0.5% guanidine hydrochloride (3090 ppm guanidine), pH 7.7, 3. inoculation): 6
Bacterial growth after inoculation (Table 2, Paint 2, +0.5% guanidine hydrochloride (3090 ppm guanidine), pH 8.4 adjusted with NaOH, 1. inoculation): 0
Bacterial growth after inoculation (Table 2, Paint 2, +0.5% guanidine hydrochloride (3090 ppm guanidine), pH 8.4 adjusted with NaOH, 2. inoculation): 0
Bacterial growth after inoculation (Table 2, Paint 2, +0.5% guanidine hydrochloride (3090 ppm guanidine), pH 8.4 adjusted with NaOH, 3. inoculation): 6
Bacterial growth after inoculation (Table 2, Paint 2, +0.5% guanidine hydrochloride (3090 ppm guanidine), pH 9.0 adjusted with NaOH, 1. inoculation): 0
Bacterial growth after inoculation (Table 2, Paint 2, +0.5% guanidine hydrochloride (3090 ppm guanidine), pH 9.0 adjusted with NaOH, 2. inoculation): 0
Bacterial growth after inoculation (Table 2, Paint 2, +0.5% guanidine hydrochloride (3090 ppm guanidine), pH 9.0 adjusted with NaOH, 3. inoculation): 3 (Moderate growth, maximum 300 to 400 colonies)
Bacterial growth after inoculation (Table 3, Paint 1, +0.5% guanidine hydrochloride (3090 ppm guanidine), pH 7.6, 1. inoculation): 6
Bacterial growth after inoculation (Table 3, Paint 1, +0.5% guanidine hydrochloride (3090 ppm guanidine), pH 7.6, 2. inoculation): 6
Bacterial growth after inoculation (Table 3, Paint 1, +0.5% guanidine hydrochloride (3090 ppm guanidine), pH 7.6, 3. inoculation): 6
Bacterial growth after inoculation (Table 3, Paint 1, +0.6% guanidine hydrochloride (3708 ppm guanidine), pH 7.6, 1. inoculation): 6
Bacterial growth after inoculation (Table 3, Paint 1, +0.6% guanidine hydrochloride (3708 ppm guanidine), pH 7.6, 2. inoculation): 6
Bacterial growth after inoculation (Table 3, Paint 1, +0.6% guanidine hydrochloride (3708 ppm guanidine), pH 7.6, 3. inoculation): 6
Bacterial growth after inoculation (Table 3, Paint 1, +0.7% guanidine hydrochloride (4326 ppm guanidine), pH 7.5, 1. inoculation): 5
Bacterial growth after inoculation (Table 3, Paint 1, +0.7% guanidine hydrochloride (4326 ppm guanidine), pH 7.5, 2. inoculation): 6
Bacterial growth after inoculation (Table 3, Paint 1, +0.7% guanidine hydrochloride (4326 ppm guanidine), pH 7.5, 3. inoculation): 6
Bacterial growth after inoculation (Table 3, Paint 1, +0.8% guanidine hydrochloride (4944 ppm guanidine), pH 7.5, 1. inoculation): 1 (Minimal growth, 1 to 10 colonies visible over the entire streak)
Bacterial growth after inoculation (Table 3, Paint 1, +0.8% guanidine hydrochloride (4944 ppm guanidine), pH 7.5, 2. inoculation): 1 (Minimal growth, 1 to 10 colonies visible over the entire streak)
Bacterial growth after inoculation (Table 3, Paint 1, +0.8% guanidine hydrochloride (4944 ppm guanidine), pH 7.5, 3. inoculation): 3 (Moderate growth, maximum 300 to 400 colonies)
Bacterial growth after inoculation (Table 3, Paint 1, +0.9% guanidine hydrochloride (5562 ppm guanidine), pH 7.5, 1. inoculation): 0
Bacterial growth after inoculation (Table 3, Paint 1, +0.9% guanidine hydrochloride (5562 ppm guanidine), pH 7.5, 2. inoculation): 0
Bacterial growth after inoculation (Table 3, Paint 1, +0.9% guanidine hydrochloride (5562 ppm guanidine), pH 7.5, 3. inoculation): 0
Bacterial growth after inoculation (Table 3, Paint 2, +0.5% guanidine hydrochloride (3090 ppm guanidine), pH 7.7, 1. inoculation): 6
Bacterial growth after inoculation (Table 3, Paint 2, +0.5% guanidine hydrochloride (3090 ppm guanidine), pH 7.7, 2. inoculation): 6
Bacterial growth after inoculation (Table 3, Paint 2, +0.5% guanidine hydrochloride (3090 ppm guanidine), pH 7.7, 3. inoculation): 6
Bacterial growth after inoculation (Table 3, Paint 2, +0.6% guanidine hydrochloride (3708 ppm guanidine), pH 7.7, 1. inoculation): 4 (Uniform growth, >400 colonies, single colonies still clearly recognizable)
Bacterial growth after inoculation (Table 3, Paint 2, +0.6% guanidine hydrochloride (3708 ppm guanidine), pH 7.7, 2. inoculation): 6
Bacterial growth after inoculation (Table 3, Paint 2, +0.6% guanidine hydrochloride (3708 ppm guanidine), pH 7.7, 3. inoculation): 6
Bacterial growth after inoculation (Table 3, Paint 2, +0.7% guanidine hydrochloride (4326 ppm guanidine), pH 7.7, 1. inoculation): 3 (Moderate growth, maximum 300 to 400 colonies)
Bacterial growth after inoculation (Table 3, Paint 2, +0.7% guanidine hydrochloride (4326 ppm guanidine), pH 7.7, 2. inoculation): 6
Bacterial growth after inoculation (Table 3, Paint 2, +0.7% guanidine hydrochloride (4326 ppm guanidine), pH 7.7, 3. inoculation): 6
Bacterial growth after inoculation (Table 3, Paint 2, +0.8% guanidine hydrochloride (4944 ppm guanidine), pH 7.6, 1. inoculation): 0
Bacterial growth after inoculation (Table 3, Paint 2, +0.8% guanidine hydrochloride (4944 ppm guanidine), pH 7.6, 2. inoculation): 0
Bacterial growth after inoculation (Table 3, Paint 2, +0.8% guanidine hydrochloride (4944 ppm guanidine), pH 7.6, 3. inoculation): 0
Bacterial growth after inoculation (Table 3, Paint 2, +0.9% guanidine hydrochloride (5562 ppm guanidine), pH 7.6, 1. inoculation): 0
Bacterial growth after inoculation (Table 3, Paint 2, +0.9% guanidine hydrochloride (5562 ppm guanidine), pH 7.6, 2. inoculation): 0
Bacterial growth after inoculation (Table 3, Paint 2, +0.9% guanidine hydrochloride (5562 ppm guanidine), pH 7.6, 3. inoculation): 0
